A weaker result is weaker than the reference pair of the same experiment. Tags and fusion partners may be left off the protein sequences shown.
Molecular target: T1, OCT2 DBD (POU domain) (Homo sapiens) (UniProt P09086)
T1 sequence (looked up): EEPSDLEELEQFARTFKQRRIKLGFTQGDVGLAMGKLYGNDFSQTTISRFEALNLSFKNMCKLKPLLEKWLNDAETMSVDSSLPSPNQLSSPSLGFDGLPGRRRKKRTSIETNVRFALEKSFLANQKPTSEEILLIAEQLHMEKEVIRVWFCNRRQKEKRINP
Assay: fluorescence anisotropy
Details: 0.15 M Na+, binding negligible relative to MORE; FP: 5 nM probe, 10 mM Bis-Tris pH 6.5, 0.01% BSA, 0.15-0.35 M NaCl, 25 C overnight, Hill fit with nH = 2 (macroscopic KD of dimer); recombinant protein; residues 195-357; protein details: N-terminal His6 removed by thrombin; label: 5'-HEX

“CTACTTCCGTATACGGAAGTAG (double strand) [scrambled-sequence (off-target) probe, HEX-labelled]”: binds more weakly.
